Results: publication PMC5522482

What was measured:
[1] = molecular target: T1, Recombinant human IL-37 (human) (UniProt Q9NZH6); experiment: pull-down; recombinant TGF-β1 (100 nmol/l) mixed with recombinant IL-37 (50 nmol/l) in RIPA buffer, applied to anti-IL-37 antibody Dynabeads, room temperature, 20 min; Western blot; both purified
T1 sequence: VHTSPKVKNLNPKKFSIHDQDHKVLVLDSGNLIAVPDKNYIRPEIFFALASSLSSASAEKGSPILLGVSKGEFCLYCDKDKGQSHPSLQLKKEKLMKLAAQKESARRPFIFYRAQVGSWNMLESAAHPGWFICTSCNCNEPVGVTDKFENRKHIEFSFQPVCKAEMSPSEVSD

[2] = molecular target: Recombinant human TGF-β1 (human); experiment: ELISA; TGF-β1 (2 μg/ml) coated on ELISA plates, blocked with 2% BSA; serial dilution of IL-37 at 4 °C overnight; bound IL-37 detected with biotinylated IL-37 antibody and streptavidin-HRP; both purified

**Q.** With Recombinant human TGF-β1 (ligand) as the molecule, how does the binding [1] read?
**A.** binds

B1: Recombinant human IL-37 (ligand, UniProt Q9NZH6 46-218)
chain: T1 sequence
**Q.** B1 was tested. Which binding [2] did it give?
**A.** binds

Results are given in words; binding and its absence hold for the method and conditions named. Binding can be weak; no strength is given.
